Data as given in PubChem BioAssay AID1224829 (NIAID, 2016).
The whole screen tested about 3,800 reagents; below is an unselected part. 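Calls cover raised and lowered translocation; gene median uses one vendor's three siRNAs; qiagen siRNAs acted more weakly than ambion siRNAs.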 The numbers tell different reagents against one gene apart. Reagent sequences are not shown.

Purpose: 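Follow-up of TLR4-NF-kappaB regulators using six separate siRNAs for each gene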 (follow-up of hits)
Cell system: mouse RAW264.7 G9 macrophage reporter cells
Reagent: single siRNA against mouse genes, 100 nM
Duration: 2 days of siRNA knock-down, then 40 min of LPS before fixing
Challenge: LPS (Salmonella minnesota R595) at 10 ng/ml
Read-out: 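High-content images after 40 min LPS exposure; GFP-p65 nucleus to surrounding ring signal ratio, normalised to plate median and non-targeting control wells, expressed as z-score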
Reading the numbers: p65 translocation z-score and gene median z-score, per vendor: higher = more nuclear NF-kappaB p65 after LPS
Hit rule: 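Active means the replicate-mean z-score lies beyond plus or minus 2, in either direction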
Calls: active = changed p65 translocation (either direction); inactive = no clear change

target | siRNA no. | siRNA vendor or control pool | p65 translocation z-score, replicate mean | p65 translocation z-score, replicate 1 | p65 translocation z-score, replicate 2 | gene median z-score, per vendor | outcome
Xrcc5 (GeneID 22596) | 1 | ambion single siRNA | 2.46 | 3.39 | 1.52 | 0.987 | active
Xrcc5 (GeneID 22596) | 2 | ambion single siRNA | -8.25 | -8.68 | -7.83 | 0.987 | active
Xrcc5 (GeneID 22596) | 3 | ambion single siRNA | 1.01 | 1.57 | 0.454 | 0.987 | inactive
Xrcc5 (GeneID 22596) | 4 | qiagen single siRNA | 0.549 | 0.151 | 0.946 | -0.511 | inactive
Xrcc5 (GeneID 22596) | 5 | qiagen single siRNA | -1.3 | -0.168 | -2.43 | -0.511 | inactive
Xrcc5 (GeneID 22596) | 6 | qiagen single siRNA | -1.05 | -0.855 | -1.25 | -0.511 | inactive
Ctf1 (GeneID 13019) | 1 | ambion single siRNA | -2.62 | -1.37 | -3.87 | -2.79 | active
Ctf1 (GeneID 13019) | 2 | ambion single siRNA | -1.15 | 0.485 | -2.79 | -2.79 | inactive
Ctf1 (GeneID 13019) | 3 | ambion single siRNA | -3.9 | -3.9 | – | -2.79 | active
Ctf1 (GeneID 13019) | 4 | qiagen single siRNA | 3.72 | 3.08 | 4.35 | 0.0633 | active
Ctf1 (GeneID 13019) | 5 | qiagen single siRNA | -4.43 | -4.43 | – | 0.0633 | active
Ctf1 (GeneID 13019) | 6 | qiagen single siRNA | -2.96 | -2.96 | – | 0.0633 | active
Cdh6 (GeneID 12563) | 1 | ambion single siRNA | -0.819 | -0.797 | -0.84 | -1.58 | inactive
Cdh6 (GeneID 12563) | 2 | ambion single siRNA | -2.07 | -1.83 | -2.31 | -1.58 | active
Cdh6 (GeneID 12563) | 3 | ambion single siRNA | -2 | -2.67 | -1.32 | -1.58 | inactive
Camk1d (GeneID 227541) | 1 | ambion single siRNA | -1.61 | -2.65 | -0.557 | -0.399 | inactive
Camk1d (GeneID 227541) | 2 | ambion single siRNA | 2.21 | -0.241 | 4.66 | -0.399 | active
Camk1d (GeneID 227541) | 3 | ambion single siRNA | -0.694 | 0.468 | -1.86 | -0.399 | inactive
Palm (GeneID 18483) | 1 | ambion single siRNA | -3.87 | -3.93 | -3.81 | -1.54 | active
Palm (GeneID 18483) | 2 | ambion single siRNA | 0.24 | 0.686 | -0.206 | -1.54 | inactive
Palm (GeneID 18483) | 3 | ambion single siRNA | -1.54 | -1.54 | – | -1.54 | inactive
Palm (GeneID 18483) | 4 | qiagen single siRNA | 1.03 | 1.2 | 0.857 | 0.0153 | inactive
Palm (GeneID 18483) | 5 | qiagen single siRNA | 0.0153 | 0.473 | -0.443 | 0.0153 | inactive
Palm (GeneID 18483) | 6 | qiagen single siRNA | -1.95 | -2.45 | -1.44 | 0.0153 | inactive
Creb5 (GeneID 231991) | 1 | qiagen single siRNA | 1.9 | 1.54 | 2.27 | 0.243 | inactive
Creb5 (GeneID 231991) | 2 | qiagen single siRNA | -0.156 | 0.243 | -0.554 | 0.243 | inactive
Creb5 (GeneID 231991) | 3 | qiagen single siRNA | -8.3 | -8.3 | – | 0.243 | active
Gclm (GeneID 14630) | 1 | ambion single siRNA | -0.153 | -0.574 | 0.268 | -0.281 | inactive
Gclm (GeneID 14630) | 2 | ambion single siRNA | 0.275 | 0.537 | 0.0116 | -0.281 | inactive
Gclm (GeneID 14630) | 3 | ambion single siRNA | -2.08 | -1.09 | -3.07 | -0.281 | active
Gclm (GeneID 14630) | 4 | qiagen single siRNA | – | – | – | -1.45 | inactive
Gclm (GeneID 14630) | 5 | qiagen single siRNA | -1.06 | -0.672 | -1.45 | -1.45 | inactive
Gclm (GeneID 14630) | 6 | qiagen single siRNA | -3.99 | -3.99 | – | -1.45 | active
Serpinb6c (GeneID 97848) | 1 | ambion single siRNA | 2.49 | 3.68 | 1.31 | -4.37 | active
Serpinb6c (GeneID 97848) | 2 | ambion single siRNA | -6.01 | -7.1 | -4.92 | -4.37 | active
Serpinb6c (GeneID 97848) | 3 | ambion single siRNA | -4.73 | -3.83 | -5.63 | -4.37 | active
Serpinb6c (GeneID 97848) | 4 | qiagen single siRNA | -0.735 | -0.835 | -0.636 | -0.735 | inactive
Serpinb6c (GeneID 97848) | 5 | qiagen single siRNA | 1.47 | 1.61 | 1.32 | -0.735 | inactive
Serpinb6c (GeneID 97848) | 6 | qiagen single siRNA | -4.63 | -5.47 | -3.78 | -0.735 | active
Or1j4 (GeneID 258620) | 1 | ambion single siRNA | -0.217 | -1.77 | 1.34 | -2.24 | inactive
Or1j4 (GeneID 258620) | 2 | ambion single siRNA | -2.2 | -1.69 | -2.71 | -2.24 | active
Or1j4 (GeneID 258620) | 3 | ambion single siRNA | -3.91 | -3.86 | -3.96 | -2.24 | active
Or1j4 (GeneID 258620) | 4 | qiagen single siRNA | -0.209 | -0.612 | 0.193 | -0.494 | inactive
Or1j4 (GeneID 258620) | 5 | qiagen single siRNA | -1.04 | -1.51 | -0.566 | -0.494 | inactive
Or1j4 (GeneID 258620) | 6 | qiagen single siRNA | 0.2 | -0.422 | 0.822 | -0.494 | inactive
Bach2 (GeneID 12014) | 1 | ambion single siRNA | 0.0145 | 0.382 | -0.353 | -0.301 | inactive
Bach2 (GeneID 12014) | 2 | ambion single siRNA | -1.07 | -0.249 | -1.9 | -0.301 | inactive
Bach2 (GeneID 12014) | 3 | ambion single siRNA | -2.07 | -3.96 | -0.169 | -0.301 | active
Bach2 (GeneID 12014) | 4 | qiagen single siRNA | -0.368 | -0.199 | -0.537 | -0.368 | inactive
Bach2 (GeneID 12014) | 5 | qiagen single siRNA | 1.4 | 1.05 | 1.75 | -0.368 | inactive
Bach2 (GeneID 12014) | 6 | qiagen single siRNA | -2.96 | -1.97 | -3.96 | -0.368 | active

Laid out differently: results already given.
{"target": "Gclm (GeneID 14630)", "siRNA no.": 6, "siRNA vendor or control pool": "qiagen single siRNA", "p65 translocation z-score, replicate mean": -3.99, "p65 translocation z-score, replicate 1": -3.99, "gene median z-score, per vendor": -1.45, "outcome": "active"}
{"target": "Serpinb6c (GeneID 97848)", "siRNA no.": 1, "siRNA vendor or control pool": "ambion single siRNA", "p65 translocation z-score, replicate mean": 2.49, "p65 translocation z-score, replicate 1": 3.68, "p65 translocation z-score, replicate 2": 1.31, "gene median z-score, per vendor": -4.37, "outcome": "active"}
{"target": "Serpinb6c (GeneID 97848)", "siRNA no.": 2, "siRNA vendor or control pool": "ambion single siRNA", "p65 translocation z-score, replicate mean": -6.01, "p65 translocation z-score, replicate 1": -7.1, "p65 translocation z-score, replicate 2": -4.92, "gene median z-score, per vendor": -4.37, "outcome": "active"}
{"target": "Serpinb6c (GeneID 97848)", "siRNA no.": 3, "siRNA vendor or control pool": "ambion single siRNA", "p65 translocation z-score, replicate mean": -4.73, "p65 translocation z-score, replicate 1": -3.83, "p65 translocation z-score, replicate 2": -5.63, "gene median z-score, per vendor": -4.37, "outcome": "active"}
{"target": "Serpinb6c (GeneID 97848)", "siRNA no.": 4, "siRNA vendor or control pool": "qiagen single siRNA", "p65 translocation z-score, replicate mean": -0.735, "p65 translocation z-score, replicate 1": -0.835, "p65 translocation z-score, replicate 2": -0.636, "gene median z-score, per vendor": -0.735, "outcome": "inactive"}
{"target": "Serpinb6c (GeneID 97848)", "siRNA no.": 5, "siRNA vendor or control pool": "qiagen single siRNA", "p65 translocation z-score, replicate mean": 1.47, "p65 translocation z-score, replicate 1": 1.61, "p65 translocation z-score, replicate 2": 1.32, "gene median z-score, per vendor": -0.735, "outcome": "inactive"}
{"target": "Serpinb6c (GeneID 97848)", "siRNA no.": 6, "siRNA vendor or control pool": "qiagen single siRNA", "p65 translocation z-score, replicate mean": -4.63, "p65 translocation z-score, replicate 1": -5.47, "p65 translocation z-score, replicate 2": -3.78, "gene median z-score, per vendor": -0.735, "outcome": "active"}
{"target": "Or1j4 (GeneID 258620)", "siRNA no.": 1, "siRNA vendor or control pool": "ambion single siRNA", "p65 translocation z-score, replicate mean": -0.217, "p65 translocation z-score, replicate 1": -1.77, "p65 translocation z-score, replicate 2": 1.34, "gene median z-score, per vendor": -2.24, "outcome": "inactive"}
